Reference: patent publication US9427415B2, “Methods and compositions for modifying sensorial perception” (The Procter & Gamble Company, priority 2014, dated 2016)

Tested on: TRPA1V1
Assay: Intracellular calcium (Fluo-4, FLIPR) activation of TRPA1V1 cells (co-expressing TRPA1 and TRPV1) by GRAS compounds;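 note: HEK293 cells co-expressing TRPA1 and TRPV1, fluorescence read at 488/514 nm after baseline subtraction, recorded every 2 s over 10 min, ionomycin 10 µM and buffer as controls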
Format: cell-based, human
Conditions: Table 1(b); 1 mM or 100 μM (*); comparison of A1, V1 and A1V1 activation

## COC(=O)C1CCCCC1 [Methyl cyclohexanecarboxylate]
  Remarks: effect of A1 and/or V1 on A1V1 response: A1 and V1 additive

## COc1cc(C2OCC(C)O2)ccc1O (centres unmarked) [Vanillin propylene glycol acetal]
  Remarks: effect of A1 and/or V1 on A1V1 response: A1 and V1 additive

## CC1COC(c2ccccc2)O1 (centres unmarked) [Benzaldehyde propylene glycol acetal]
  Remarks: effect of A1 and/or V1 on A1V1 response: A1 and V1 additive

## CC(C)C(=O)OCc1ccc2c(c1)OCO2 [Piperonyl isobutyrate]
  Remarks: effect of A1 and/or V1 on A1V1 response: A1 and V1 additive

## CC1=CC(=O)C(C(C)C)CC1 (centres unmarked) [Piperitone]
  Remarks: effect of A1 and/or V1 on A1V1 response: A1 and V1 additive

## CCCCCC1C(=O)CCC1CC(=O)OC (centres unmarked) [Hedione, Methyl dihydrojasmonate]
  Remarks: effect of A1 and/or V1 on A1V1 response: A1 and V1 additive

## CC(=O)OCc1ccc2c(c1)OCO2 [Piperonyl acetate]
  Remarks: effect of A1 and/or V1 on A1V1 response: A1 and V1 additive

## CC(O)CCc1ccccc1 (centres unmarked) [4-Phenyl-2-butanol]
  Remarks: effect of A1 and/or V1 on A1V1 response: A1 and V1 additive
